Experimental findings from patent US9034873B2, “Pyridazine and pyrrole compounds, processes for obtaining them and uses” (Centre National de la Recherche Scientifique (C.N.R.S.), priority 2006, dated 2015) are described below.

The subject of this assay is Sub7 (liver). The assay can be described thus: IC50 of the referent molecules on Sub7 (liver) cells. In kind it is cell-based.

Broadly, the IC50 is the concentration that inhibits the measured activity by half.

Read-outs that look alike come from different tables or passages of the source.

For the molecule `CC[C@H](CO)Nc1nc(NCc2ccccc2)c2ncn(C(C)C)c2n1` [Roscovitine], the half-maximal inhibitory concentration (IC50) (24 h, read-out: IC50 μM Sub7 (liver) 24 h) was determined as 10 µM and the 50% inhibitory concentration (IC50) (48 h, read-out: IC50 μM Sub7 (liver) 48 h) was 4 µM.
